According to US20120305476A1, “TREATMENT METHOD FOR REDUCING THE PRODUCTION OF AN H2S COMPOUND IN AQUEOUS EFFLUENTS PASSING INTO A PIPE” (CENTRE NATIONAL DE LA RECHERCHE SCIENTIFIQUE (CNRS), priority 2010, published 2012):

Tested on: sulfate-reducing bacteria (SRB)
Protocol: Experiments were carried out on a sewerage system diagrammatically shown in FIG. 6, comprising a cesspool 3 supplied with effluent 1 from a conduit 11, a lifting pump 4 that was used to supply a force main 2 from the cesspool 3 to a holding tank 8 cooperating with a gravity fed transfer conduit 9 to a treatment plant (not shown).
The force main 2 was 1170 m [meter] long with a nominal diameter of 250 mm [millimeter], giving a volume of 57.5 m^3. The delivery of the lifting pump was 150 m^3/hour. A nitrite tank 12 cooperated with a dosing pump 7 to inject nitrite into the effluents entering the force main 2.
Sodium nitrite NaNO2 was tested in 40% by weight solution with a density of 1.3. […]
Various measurements for the concentration of sulfide in water leaving the force main were carried out. The concentration of sulfide in water was determined by means of an assay kit using the reaction of H2S with aniline forming a colorless intermediate that is oxidized by ferric ions to a colored compound: methylene blue, an optical disk comparator with a color gradient, was used to determine the concentration of sulfide in the solution as a function of its color. The temperatures of the effluent and redox potential were measured at the holding tank or settling tank 8 using standard equipment.

Row | SMILES | flotation in the holding tank (excess nitrite, pump stopped, observed via the manhole) | residual sodium nitrite in the effluents at the outlet from the conduit (more than 5-6 g of NaNO2 per gram of dissolved sulfide H2S produced in the absence of treatment)
1 | O=NO [nitrite] | fats floated on the surface of the effluent | 
2 | O=NO [sodium nitrite] |  | residual traces of sodium nitrite were observed
